Assay results reported in PMC12036875, “Mitochondria-targeting natural product rhein conjugated with dichloroacetate as the dual inhibitor of glycolysis and oxidative phosphorylation to off energize cancer cells and induce ROS storm” (Theranostics, 2025).

Test system: mitochondria of 4T1 cells
Assay: Cell uptake and organelle localization (CLSM)
Type: cell-based, Mouse
Conditions: 24 h, ImageJ
Text: In order to evaluate the positive effect of the conjugation of rhein and DCA on anti-cancer aspect, cellular uptake of Rhein-DCA conjugate in 4T1 cells was first examined by confocal laser scanning microscope (CLSM). Based on the fluorescence properties of Rhein-DCA conjugate, green fluorescence signal indicated its distribution within the cells. […] The green fluorescence of rhein was highly overlapped with the red fluorescence of mitochondria (Mito tracker red) and merged into yellow fluorescence in rhein and Rhein-DCA groups.
4T1 cells were seeded in confocal dishes at a density of 10 × 10^4 cells per dish and cultured in the incubator for 24 h. And the cells were further treated with Rhein-DCA conjugate at a concentration of 6.25 μM for 0, 2, 6, 12 or 24 h, respectively. Thereafter, the cells were washed twice with PBS and stained with Hoechst 33342 (10 μg/mL) for 15 min in the dark at room temperature, followed by another two washes with PBS. Finally, the fluorescence intensity of cells was monitored with confocal microscope with excitation wavelengths (Ex) of 488 nm, emission wavelengths (Em) of 525 ± 25 nm, and Ex of 405 nm, Em of 447 ± 30 nm, respectively. […]

| SMILES | pearson's correlation coefficient with Mito Tracker Deep Red FM |
| --- | --- |
| O=C(O)c1cc(O)c2c(c1)C(=O)c1cccc(O)c1C2=O [Rhein, 4,5-dihydroxyanthraquinone-2-carboxylic acid] | 0.91 |
| O=C(OCCOC(=O)C(Cl)Cl)c1cc(O)c2c(c1)C(=O)c1cccc(O)c1C2=O [Rhein-DCA] | 0.92 |
